Results reported in article PMC7046147.
Negatives hold for the conditions tested.

By UniProt entry, the sequences of proteins in these tests, tags left out. Residues count along the entry.
UniProt P26367, 4-83: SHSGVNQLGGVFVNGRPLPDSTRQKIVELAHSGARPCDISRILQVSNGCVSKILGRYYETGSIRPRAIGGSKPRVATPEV
UniProt P26367, 84-136: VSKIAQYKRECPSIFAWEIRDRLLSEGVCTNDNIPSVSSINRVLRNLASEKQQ

Key:
Experiment in all cases: ITC
[1] = molecular target: PAX6 PAI subdomain with linker (human) (UniProt P26367); conditions: ITC (iTC200) at 25 °C in buffer C (composition not given; protein stored in 25 mM Hepes pH 7.5, 150 mM NaCl, 5 mM b-ME); 20 uM protein in cell, 200 uM DNA in syringe; recombinant protein; residues 4-83
PAX6 V84Afs*8 (human) = PAX6 V84Afs*8 (human) (UniProt P26367); conditions: ITC (iTC200) at 25 °C in buffer C (composition not given; protein stored in 25 mM Hepes pH 7.5, 150 mM NaCl, 5 mM b-ME); 20 uM protein in cell, 200 uM DNA in syringe; recombinant protein; protein details: N-terminal His6 removed by TEV
[2] = molecular target: PAX6 RED subdomain (human) (UniProt P26367); conditions: ITC (iTC200) at 25 °C in buffer C (composition not given; protein stored in 25 mM Hepes pH 7.5, 150 mM NaCl, 5 mM b-ME); 20 uM protein in cell, 200 uM DNA in syringe; recombinant protein; residues 84-136

Measured: binding result

AAGCATTTTCACGCATGAGTGCACAG / TTCTGTGCACTCATGCGTGAAAATGC [P6B]
no binding: all assays above
